Results are given in words; binding and its absence hold for the method and conditions named. Some binding calls cover weakened binding; strength is not graded here.

Sequences of proteins named here, by UniProt entry; tags and fusion partners are left off. Residues count along the entry.
UniProt Q60751: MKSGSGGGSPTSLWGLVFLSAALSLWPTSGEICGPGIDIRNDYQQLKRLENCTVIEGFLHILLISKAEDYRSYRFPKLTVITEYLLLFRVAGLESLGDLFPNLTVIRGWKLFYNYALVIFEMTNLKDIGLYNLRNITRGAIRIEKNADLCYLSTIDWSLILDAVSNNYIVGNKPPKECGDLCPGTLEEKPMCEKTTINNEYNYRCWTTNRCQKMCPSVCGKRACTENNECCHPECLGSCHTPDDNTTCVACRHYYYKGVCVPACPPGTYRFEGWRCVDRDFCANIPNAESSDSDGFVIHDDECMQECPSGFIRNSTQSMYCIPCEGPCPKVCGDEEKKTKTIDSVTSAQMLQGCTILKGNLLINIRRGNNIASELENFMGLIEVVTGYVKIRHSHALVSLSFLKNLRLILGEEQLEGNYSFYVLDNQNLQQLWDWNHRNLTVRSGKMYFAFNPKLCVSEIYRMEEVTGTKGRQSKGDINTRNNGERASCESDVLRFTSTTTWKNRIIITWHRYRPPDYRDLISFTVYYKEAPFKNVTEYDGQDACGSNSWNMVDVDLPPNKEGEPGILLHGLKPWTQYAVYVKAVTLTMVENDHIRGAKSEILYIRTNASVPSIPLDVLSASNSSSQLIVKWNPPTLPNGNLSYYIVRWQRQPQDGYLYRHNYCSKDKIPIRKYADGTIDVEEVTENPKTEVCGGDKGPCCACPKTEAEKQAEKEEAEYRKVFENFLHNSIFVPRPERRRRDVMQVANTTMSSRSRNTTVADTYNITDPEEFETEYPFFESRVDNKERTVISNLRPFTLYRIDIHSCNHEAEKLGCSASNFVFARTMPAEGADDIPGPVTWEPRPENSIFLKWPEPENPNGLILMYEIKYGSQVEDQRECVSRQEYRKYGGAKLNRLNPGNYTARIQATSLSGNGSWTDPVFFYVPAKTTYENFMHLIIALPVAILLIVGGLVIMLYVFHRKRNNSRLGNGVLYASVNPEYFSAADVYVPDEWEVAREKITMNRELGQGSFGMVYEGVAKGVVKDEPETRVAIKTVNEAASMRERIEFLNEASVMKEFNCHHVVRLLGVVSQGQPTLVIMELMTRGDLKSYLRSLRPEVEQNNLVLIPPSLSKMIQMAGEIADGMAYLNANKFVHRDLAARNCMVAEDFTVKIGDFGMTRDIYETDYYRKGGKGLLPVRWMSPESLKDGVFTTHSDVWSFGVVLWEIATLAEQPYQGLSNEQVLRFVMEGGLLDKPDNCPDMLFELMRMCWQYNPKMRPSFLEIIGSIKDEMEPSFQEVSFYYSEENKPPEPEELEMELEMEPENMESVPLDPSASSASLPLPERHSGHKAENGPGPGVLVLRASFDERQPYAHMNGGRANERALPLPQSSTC
UniProt P08069, residues 31-932: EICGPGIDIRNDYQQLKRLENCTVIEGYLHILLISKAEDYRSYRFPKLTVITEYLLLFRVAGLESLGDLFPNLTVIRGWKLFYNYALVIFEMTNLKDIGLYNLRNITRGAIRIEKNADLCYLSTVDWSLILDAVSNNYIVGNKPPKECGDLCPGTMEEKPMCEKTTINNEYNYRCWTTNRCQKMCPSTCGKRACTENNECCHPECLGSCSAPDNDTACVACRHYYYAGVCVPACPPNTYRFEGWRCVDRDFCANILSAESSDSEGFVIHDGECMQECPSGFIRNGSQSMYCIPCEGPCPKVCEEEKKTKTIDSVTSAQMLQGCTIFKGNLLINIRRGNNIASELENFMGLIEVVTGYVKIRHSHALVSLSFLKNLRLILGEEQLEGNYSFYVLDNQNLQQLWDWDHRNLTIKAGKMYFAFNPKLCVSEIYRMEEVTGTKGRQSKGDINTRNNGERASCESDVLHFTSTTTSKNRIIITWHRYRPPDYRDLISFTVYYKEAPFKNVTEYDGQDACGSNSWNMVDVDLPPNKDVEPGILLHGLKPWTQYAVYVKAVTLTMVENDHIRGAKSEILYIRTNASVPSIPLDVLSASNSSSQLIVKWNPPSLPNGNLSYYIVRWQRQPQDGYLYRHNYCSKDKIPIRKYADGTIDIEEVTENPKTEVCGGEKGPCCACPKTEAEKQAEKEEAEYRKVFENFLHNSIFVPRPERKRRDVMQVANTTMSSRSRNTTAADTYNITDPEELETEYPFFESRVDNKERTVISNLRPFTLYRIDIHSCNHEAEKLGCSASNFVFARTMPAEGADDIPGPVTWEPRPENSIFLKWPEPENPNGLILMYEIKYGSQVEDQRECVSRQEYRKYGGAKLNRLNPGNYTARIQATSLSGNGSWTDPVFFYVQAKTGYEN

For assay [1], the target named is 小鼠IGF-1R(1-903)-Fc (mouse; human) (UniProt Q60751). The assay can be described thus: SPR, antibody immobilised, receptor-Fc injected (multivalent). (In SPR one partner is held on a chip, and binding of the other changes the refractive index at the surface.)
For assay [2], the target named is soluble / recombinant IGF-1R, construct not stated (UniProt P08069). The assay can be described thus: ELISA with supernatants of 293E cells. For orientation: An ELISA detects its analyte on a solid surface through an enzyme-linked reagent.

B1: M13-C06 antibody (full-length, IgG4 version not stated) (antibody, V domains shown)
VH: EVQLLESGGGLVQPGGSLRLSCAASGFTFSIYRMQWVRQAPGKGLEWVSGISPSGGTTWYADSVKGRFTISRDNSKNTLYLQMNSLRAEDTAVYYCARWSGGSGYAFDIWGQGTMVTVSS
VL: DIQMTQSPLSLSASVGDRVTITCQASRDIRNYLNWYQQKPGKAPKLLIYDASSLQTGVPSRFGGSGSGTDFSFTIGSLQPEDIATYYCQQFDSLPHTFGQGTKLEIK
In the case of B1, the binding entry in assay [1] is given as “binds”.

B2: M14-C03 antibody (full-length, IgG4 version not stated) (antibody, V domains shown)
VH: EVQLLESGGGLVQPGGSLRLSCAASGFTFSKYMMSWVRQAPGKGLEWVSYISPSGGLTWYADSVKGRFTISRDNSKNTLYLQMNSLRAEDTAVYYCARDGARGYGMDVWGQGTTVTVSS
VL: DIQMTQSPATLSLSPGERATLSCRASQSVSSYLAWYQQKPGQAPRLLIYDASNRATGIPARFSGSGSGTDFTLTISSLEPEDFAVYYCQQRSNWPPEVTFGPGTKVDIK
For the molecule B2, the binding entry in assay [1] is “binds”.

B3: M14-C03.G4.P (antibody, human IgG4, V domains shown, not shown: a dimerising Fc or GST)
VH: B2 VH
VL: B2 VL
In the case of B3, the binding result in assay [2] is given as “binds”.
